No constants are given. Whether binding was seen depends on the method and setting. In cells and extracts the contact can be indirect. Some binding calls cover weakened binding; strength is not graded here.
Molecular target: T1, p47^phox (mouse (endogenous in BMDM)) (UniProt Q09014)
T1 sequence: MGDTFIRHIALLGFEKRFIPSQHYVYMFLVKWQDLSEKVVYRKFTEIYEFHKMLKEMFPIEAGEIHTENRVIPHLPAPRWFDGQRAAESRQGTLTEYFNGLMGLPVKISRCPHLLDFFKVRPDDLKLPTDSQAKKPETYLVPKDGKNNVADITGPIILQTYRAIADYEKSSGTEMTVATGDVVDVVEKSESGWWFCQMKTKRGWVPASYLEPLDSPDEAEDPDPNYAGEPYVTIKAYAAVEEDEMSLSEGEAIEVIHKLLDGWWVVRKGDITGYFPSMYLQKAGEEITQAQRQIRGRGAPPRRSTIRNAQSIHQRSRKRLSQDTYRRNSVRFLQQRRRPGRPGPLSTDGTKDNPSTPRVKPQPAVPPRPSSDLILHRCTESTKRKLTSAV
Experiment: co-IP; lysates of WT BMDM treated with BCM (40 μl/ml) for 0-18 h; immunoprecipitated with anti-p47phox antibody on Dynabeads protein G; immunoblot for gp91phox

binding: binds
B1: gp91^phox (protein, UniProt Q61093 1-570)
chain: MGNWAVNEGLSIFVILVWLGLNVFLFINYYKVYDDGPKYNYTRKLLGSALALARAPAACLNFNCMLILLPVCRNLLSFLRGSSACCSTRIRRQLDRNLTFHKMVAWMIALHTAIHTIAHLFNVEWCVNARVGISDRYSIALSDIGDNENEEYLNFAREKIKNPEGGLYVAVTRLAGITGIVITLCLILIITSSTKTIRRSYFEVFWYTHHLFVIFFIGLAIHGAERIVRGQTAESLEEHNLDICADKIEEWGKIKECPVPKFAGNPPMTWKWIVGPMFLYLCERLVRFWRSQQKVVITKVVTHPFKTIELQMKKKGFKMEVGQYIFVKCPKVSKLEWHPFTLTSAPEEDFFSIHIRIVGDWTEGLFNACGCDKQEFQDAWKLPKIAVDGPFGTASEDVFSYEVVMLVGAGIGVTPFASILKSVWYKYCDNATSLKLKKIYFYWLCRDTHAFEWFADLLQLLETQMQERNNANFLSYNIYLTGWDESQANHFAVHHDEEKDVITGLKQKTLYGRPNWDNEFKTIASEHPNTTIGVFLCGPEALAETLSKQSISNSESGPRGVHFIFNKENF

Source: publication PMC5584526
